Reference: publication PMC7415139
Results are given in words; binding and its absence hold for the method and conditions named. In cells and extracts the contact can be indirect. A yes stands for co-enrichment or nearness to the bait. Other partners may have been found.

B1: GFA1/MEE5/CLO (protein, UniProt Q9LNC5 1-987)
chain: MESSLYDEFGNYVGPEIESDRDSDDEVEDEDLQDKHLEENGSDGEQGPGGSNGWITTINDVEMENQIVLPEDKKYYPTAEEVYGEDVETLVMDEDEQPLEQPIIKPVRDIRFEVGVKDQATYVSTQFLIGLMSNPALVRNVALVGHLQHGKTVFMDMLVEQTHHMSTFNAKNEKHMKYTDTRVDEQERNISIKAVPMSLVLEDSRSKSYLCNIMDTPGHVNFSDEMTASLRLADGAVLIVDAAEGVMVNTERAIRHAIQDHLPIVVVINKVDRLITELKLPPRDAYYKLRHTIEVINNHISAASTTAGDLPLIDPAAGNVCFASGTAGWSFTLQSFAKMYAKLHGVAMDVDKFASRLWGDVYYHSDTRVFKRSPPVGGGERAFVQFILEPLYKIYSQVIGEHKKSVETTLAELGVTLSNSAYKLNVRPLLRLACSSVFGSASGFTDMLVKHIPSPREAAARKVDHSYTGTKDSPIYESMVECDPSGPLMVNVTKLYPKSDTSVFDVFGRVYSGRLQTGQSVRVLGEGYSPEDEEDMTIKEVTKLWIYQARYRIPVSSAPPGSWVLIEGVDASIMKTATLCNASYDEDVYIFRALQFNTLPVVKTATEPLNPSELPKMVEGLRKISKSYPLAITKVEESGEHTILGTGELYLDSIMKDLRELYSEVEVKVADPVVSFCETVVESSSMKCFAETPNKKNKITMIAEPLDRGLAEDIENGVVSIDWNRKQLGDFFRTKYDWDLLAARSIWAFGPDKQGPNILLDDTLPTEVDRNLMMAVKDSIVQGFQWGAREGPLCDEPIRNVKFKIVDARIAPEPLHRGSGQMIPTARRVAYSAFLMATPRLMEPVYYVEIQTPIDCVTAIYTVLSRRRGHVTSDVPQPGTPAYIVKAFLPVIESFGFETDLRYHTQGQAFCLSVFDHWAIVPGDPLDKAIQLRPLEPAPIQHLAREFMVKTRRRKGMSEDVSGNKFFDEAMMVELAQQTGDLHLQMI
B2: CDC5/MAC1 (protein, UniProt P92948 1-844)
chain: MRIMIKGGVWKNTEDEILKAAVMKYGKNQWARISSLLVRKSAKQCKARWYEWLDPSIKKTEWTREEDEKLLHLAKLLPTQWRTIAPIVGRTPSQCLERYEKLLDAACTKDENYDAADDPRKLRPGEIDPNPEAKPARPDPVDMDEDEKEMLSEARARLANTRGKKAKRKAREKQLEEARRLASLQKRRELKAAGIDGRHRKRKRKGIDYNAEIPFEKRAPAGFYDTADEDRPADQVKFPTTIEELEGKRRADVEAHLRKQDVARNKIAQRQDAPAAILQANKLNDPEVVRKRSKLMLPPPQISDHELEEIAKMGYASDLLAENEELTEGSAATRALLANYSQTPRQGMTPMRTPQRTPAGKGDAIMMEAENLARLRDSQTPLLGGENPELHPSDFTGVTPRKKEIQTPNPMLTPSMTPGGAGLTPRIGLTPSRDGSSFSMTPKGTPFRDELHINEDMDMHESAKLERQRREEARRSLRSGLTGLPQPKNEYQIVAQPPPEESEEPEEKIEEDMSDRIAREKAEEEARQQALLKKRSKVLQRDLPRPPAASLAVIRNSLLSADGDKSSVVPPTPIEVADKMVREELLQLLEHDNAKYPLDDKAEKKKGAKNRTNRSASQVLAIDDFDENELQEADKMIKEEGKFLCVSMGHENKTLDDFVEAHNTCVNDLMYFPTRSAYELSSVAGNADKVAAFQEEMENVRKKMEEDEKKAEHMKAKYKTYTKGHERRAETVWTQIEATLKQAEIGGTEVECFKALKRQEEMAASFRKKNLQEEVIKQKETESKLQTRYGNMLAMVEKAEEIMVGFRAQALKKQEDVEDSHKLKEAKLATGEEEDIAIAMEASA
B3: MAC3A (protein, UniProt Q94BR4 1-523)
chain: MNCAISGEVPEEPVVSKKSGLLYEKRLIQTHISDYGKCPVTGEPHTLDDIVPIKTGKIVKPKPLHTASIPGLLGTFQTEWDSLMLSNFALEQQLHTARQELSHALYQHDAACRVIARLKKERDESRQLLAEAERQLPAAPEVATSNAALSNGKRGIDDGEQGPNAKKMRLGISAEVITELTDCNAALSQQRKKRQIPKTLASVDALEKFTQLSSHPLHKTNKPGIFSMDILHSKDVIATGGIDTTAVLFDRPSGQILSTLTGHSKKVTSIKFVGDTDLVLTASSDKTVRIWGCSEDGNYTSRHTLKDHSAEVRAVTVHATNKYFVSASLDSTWCFYDLSSGLCLAQVTDASENDVNYTAAAFHPDGLILGTGTAQSIVKIWDVKSQANVAKFGGHNGEITSISFSENGYFLATAALDGVRLWDLRKLKNFRTFDFPDANSVEFDHSGSYLGIAASDIRVFQAASVKAEWNPIKTLPDLSGTGKATSVKFGLDSKYIAVGSMDRNLRIFGLPDDDNTEDSAQDS
B4: MAC3B (protein, UniProt O22785 1-525)
chain: MNCAISGEVPVEPVVSTKSGLLFERRLIERHISDYGKCPVTGEPLTIDDIVPIKTGEIIKPKTLHTASIPGLLGTFQNEWDGLMLSNFALEQQLHTARQELSHALYQHDSACRVIARLKKERDEARQLLAEVERHIPAAPEAVTANAALSNGKRAAVDEELGPDAKKLCPGISAEIITELTDCNAALSQKRKKRQIPQTLASIDTLERFTQLSSHPLHKTNKPGICSMDILHSKDVIATGGVDATAVLFDRPSGQILSTLTGHSKKVTSVKFVGDSDLVLTASADKTVRIWRNPGDGNYACGYTLNDHSAEVRAVTVHPTNKYFVSASLDGTWCFYDLSSGSCLAQVSDDSKNVDYTAAAFHPDGLILGTGTSQSVVKIWDVKSQANVAKFDGHTGEVTAISFSENGYFLATAAEDGVRLWDLRKLRNFKSFLSADANSVEFDPSGSYLGIAASDIKVYQTASVKAEWNLIKTLPDLSGTGKATCVKFGSDAQYVAVGSMDRNLRIFGLPGDEKANVDDDSAQDS

Target: CWC15-3xGFP (Arabidopsis thaliana)
Assay: affinity purification with mass spectrometry; GFP-tagged CWC15 precipitated with GFP-Trap magnetic beads from lysate of seedlings 6 dag (150 mM NaCl, 50 mM Tris pH 7.5, 2 mM EDTA, 0.5% Triton X-100), 3 h at 4 °C; LC-MS/MS; compared with precipitates of GFP-tagged IMPα6 and ARF5

Binder	binding
B1	binds
B2	binds
B3	binds
B4	binds
